Measurements reported in PubChem BioAssay AID1259425 (University of Nebraska Medical Center, 2018).
Shown is one part, drawn at random, of about 14,000 reagents. Further read-outs or replicates are left out here. The record does not give: the time to read-out.

Test: 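Seek colon cancer weak points whose silencing resembles KSR1 loss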 (primary screen)
Cell system: HCT116 human colon cancer cells
Reagent: siRNA pool against human genes, 50 nM siRNA
Read-out: 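mRNA of six signature genes measured together by branched-DNA assay after 50 nM siRNA pool, blank removed, divided by geometric mean of two housekeeping genes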
Direction: BNIP3L mRNA: higher = more BNIP3L transcript after knockdown

{"gene knocked down": "PCDH20 (GeneID 64881)", "BNIP3L mRNA, set 1": 0.166}
{"gene knocked down": "CFAP298 (GeneID 56683)", "BNIP3L mRNA, set 1": 0.169}
{"gene knocked down": "TMEM14A (GeneID 28978)", "BNIP3L mRNA, set 1": 0.133}
{"gene knocked down": "SLC18A2 (GeneID 6571)", "BNIP3L mRNA, set 1": 0.105}
{"gene knocked down": "IQSEC2 (GeneID 23096)", "BNIP3L mRNA, set 1": 0.113}
{"gene knocked down": "SLC6A8 (GeneID 6535)", "BNIP3L mRNA, set 1": 0.0951}
{"gene knocked down": "CETN2 (GeneID 1069)", "BNIP3L mRNA, set 1": 0.0666}
{"gene knocked down": "CCND3 (GeneID 896)", "BNIP3L mRNA, set 1": 0.0786}
{"gene knocked down": "TMEM94 (GeneID 9772)", "BNIP3L mRNA, set 1": 0.121}

Part of the list above, set out differently:
gene knocked down	BNIP3L mRNA, set 1
SLC18A2 (GeneID 6571)	0.105
IQSEC2 (GeneID 23096)	0.113
SLC6A8 (GeneID 6535)	0.0951

Continued.
{"gene knocked down": "GEMIN7 (GeneID 79760)", "BNIP3L mRNA, set 1": 0.153}
{"gene knocked down": "IL9R (GeneID 3581)", "BNIP3L mRNA, set 1": 0.195}
{"gene knocked down": "PCDHB2 (GeneID 56133)", "BNIP3L mRNA, set 1": 0.14}
{"gene knocked down": "RNF41 (GeneID 10193)", "BNIP3L mRNA, set 1": 0.159}
{"gene knocked down": "JUND (GeneID 3727)", "BNIP3L mRNA, set 1": 0.157}
{"gene knocked down": "ECE1 (GeneID 1889)", "BNIP3L mRNA, set 1": 0.0894}
{"gene knocked down": "SLC4A10 (GeneID 57282)", "BNIP3L mRNA, set 1": 0.184}
{"gene knocked down": "NME4 (GeneID 4833)", "BNIP3L mRNA, set 1": 0.327}
{"gene knocked down": "RNF144A (GeneID 9781)", "BNIP3L mRNA, set 1": 0.106}
{"gene knocked down": "CHLSN (GeneID 84310)", "BNIP3L mRNA, set 1": 0.236}
{"gene knocked down": "MRPL45 (GeneID 84311)", "BNIP3L mRNA, set 1": 0.166}
{"gene knocked down": "CYB561D2 (GeneID 11068)", "BNIP3L mRNA, set 1": 0.16}
{"gene knocked down": "HSPA13 (GeneID 6782)", "BNIP3L mRNA, set 1": 0.0586}
{"gene knocked down": "TAS2R46 (GeneID 259292)", "BNIP3L mRNA, set 1": 0.164}
{"gene knocked down": "ERGIC3 (GeneID 51614)", "BNIP3L mRNA, set 1": 0.272}
{"gene knocked down": "BACH1 (GeneID 571)", "BNIP3L mRNA, set 1": 0.151}
{"gene knocked down": "SCAND2P (GeneID 54581)", "BNIP3L mRNA, set 1": 0.0669}
{"gene knocked down": "CYP2C19 (GeneID 1557)", "BNIP3L mRNA, set 1": 0.114}
{"gene knocked down": "SERPINA5 (GeneID 5104)", "BNIP3L mRNA, set 1": 0.148}
